# Test results published in article PMC12524113.
# These are yes or no findings as the source states them, for the method shown. Binding seen in cells or lysates may run through a third protein. Some binding calls cover weakened binding; strength is not graded here. Tags and fused reporters may be left off the sequences shown.
# B1: WT-long-UBASH3A-V5-6xHis, transiently expressed in HEK cells (enzyme, UniProt P57075 1-661)
# chain: MAAGETQLYAKVSNKLKSRSSPSLLEPLLAMGFPVHTALKALAATGRKTAEEALAWLHDHCNDPSLDDPIPQEYALFLCPTGPLLEKLQEFWRESKRQCAKNRAHEVFPHVTLCDFFTCEDQKVECLYEALKRAGDRLLGSFPTAVPLALHSSISYLGFFVSGSPADVIREFAMTFATEASLLAGTSVSRFWIFSQVPGHGPNLRLSNLTRASFVSHYILQKYCSVKPCTKQLHLTLAHKFYPHHQRTLEQLARAIPLGHSCQWTAALYSRDMRFVHYQTLRALFQYKPQNVDELTLSPGDYIFVDPTQQDEASEGWVIGISQRTGCRGFLPENYTDRASESDTWVKHRMYTFSLATDLNSRKDGEASSRCSGEFLPQTARSLSSLQALQATVARKSVLVVRHGERVDQIFGKAWLQQCSTPDGKYYRPDLNFPCSLPRRSRGIKDFENDPPLSSCGIFQSRIAGDALLDSGIRISSVFASPALRCVQTAKLILEELKLEKKIKIRVEPGIFEWTKWEAGKTTPTLMSLEELKEANFNIDTDYRPAFPLSALMPAESYQEYMDRCTASMVQIVNTCPQDTGVILIVSHGSTLDSCTRPLLGLPPRECGDFAQLVRKIPSLGMCFCEENKEEGKWELVNPPVKTLTHGANAAFNWRNWISGN
# Target: T1, FCRL3, untagged, transiently expressed in HEK cells (human) (UniProt Q96P31)
# T1 sequence: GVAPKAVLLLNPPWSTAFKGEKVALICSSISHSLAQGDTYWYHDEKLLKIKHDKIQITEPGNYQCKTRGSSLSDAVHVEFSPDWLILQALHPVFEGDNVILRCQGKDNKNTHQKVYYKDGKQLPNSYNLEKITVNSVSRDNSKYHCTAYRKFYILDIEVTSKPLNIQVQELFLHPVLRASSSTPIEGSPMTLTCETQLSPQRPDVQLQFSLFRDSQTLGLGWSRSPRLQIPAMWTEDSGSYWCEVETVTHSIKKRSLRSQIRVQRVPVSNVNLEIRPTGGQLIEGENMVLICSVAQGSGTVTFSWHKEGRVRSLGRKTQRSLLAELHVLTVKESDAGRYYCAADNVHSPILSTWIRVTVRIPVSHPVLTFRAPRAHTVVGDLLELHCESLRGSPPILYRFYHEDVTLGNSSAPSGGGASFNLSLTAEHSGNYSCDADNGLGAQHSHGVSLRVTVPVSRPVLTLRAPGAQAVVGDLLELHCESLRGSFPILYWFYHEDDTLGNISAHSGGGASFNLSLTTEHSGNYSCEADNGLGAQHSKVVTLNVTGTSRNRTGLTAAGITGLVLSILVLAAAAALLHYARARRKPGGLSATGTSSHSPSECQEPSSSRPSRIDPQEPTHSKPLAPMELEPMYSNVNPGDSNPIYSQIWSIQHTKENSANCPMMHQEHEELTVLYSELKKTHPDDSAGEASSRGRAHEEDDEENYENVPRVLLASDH
# Assay: co-IP; HEK cells transfected with FCRL3 and UBASH3A plasmids; 700 µg lysate, IP with rabbit polyclonal anti-FCRL3 antibody and protein A magnetic beads overnight at 4°C; immunoblot for UBASH3A
binder,measurement,value
B1,binding,binds
